Measurements as given in PubChem BioAssay AID2685 (National Center for Advancing Translational Sciences (NCATS), 2010).
The list shows a part of the results. The main result of the screen is listed elsewhere. These columns were measured beside it and carry no call. The list favours compounds with an active or inconclusive main result. Words in brackets tell the shape of the fitted curve; partial curves, single points and poor fits give uncertain potencies.

Assay: qHTS Assay for Lipid Storage Modulators in Drosophila S3 Cells;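 on cell number change: cells counted by Cell Tracker Red CMTPX staining in the red channel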
Conditions: BODIPY lipid droplet fluorescence, 18-24 h; for cell number change: measured here: cell count max response, cells fed with added oleic acid
In short: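 Drosophila S3 cells loaded with oleic acid (400 uM, as added) and compounds at several concentrations; lipid droplets imaged by 488-nm laser-scanning cytometry, 500–530 nm intensity and object ratio to cell channel. Percent activity normalized to 20 uM Triacsin C.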

[1] = measured here: lipid fluorescence (Fed channel) AC50, cells fed with added oleic acid
[2] = measured here: cell number channel AC50, cells fed with added oleic acid

SMILES | cell number change | AC50 [1] | AC50 [2]
O=C(COc1ccc(Br)cc1)NCCN1CCCC1 | -2.19% | – | –
Cc1cccc(OCCCCCNCCO)c1 | – | 0.00517 µM [falling, full curve, poor fit] | –
O=C(CCc1c[nH]c2ccccc12)OCc1cccc([N+](=O)[O-])c1 | – | 6.51 µM [falling, single point] | –
CC1CCCCN1CCNC(=O)C1CCCN(S(=O)(=O)c2cccc3nsnc23)C1 (stereo not given) | -22.2% | 29.1 µM [rising, single point] | –
CC/C(=N\NC(=O)C1CCCC1)c1ccc(Br)cc1 | – | 29.1 µM [rising, single point] | –
COc1ccc(C(=O)Nc2ccccc2C(=O)NCc2cccnc2)cc1OC | -30.1% | – | 0.0651 µM [falling, full curve, poor fit]
O=C(NC1CCCN(Cc2ccc(Cl)cc2)C1)c1c(F)cccc1F (stereo not given) | -3.15% | – | –
Cc1sc(NC(=O)CSc2nnc(COc3ccccc3)n2C)c(C#N)c1C | -27.1% | 1.84 µM [falling, partial curve] | –
C#CCNC(=O)/C=C/c1ccc(OC)cc1 | 19.6% | 9.2 µM [rising, partial curve] | –
CC(=C1C(=O)c2ccccc2C1=O)N1CCN(c2ccccn2)CC1 | 12% | – | –
CCOc1ccccc1-c1ccc(C(=O)NCc2ccccc2)o1 | 3.74% | 9.2 µM [rising, partial curve] | –
COCC(C)n1c(C)cc(C(=O)CN2C(=O)NC(Cc3c[nH]c4ccccc34)C2=O)c1C (stereo not given) | 102% | 1.3 µM [rising, partial curve] | 1.46 µM [rising, full curve]
COc1ccc(CC(=O)n2nc(-c3ccccc3)nc2NCc2ccco2)cc1 | 95.4% | – | 29.1 µM [rising, single point]
Cc1ccc(C)c(N2CCN(C(=O)CCCOc3cc(=O)n(C)c4ccccc34)CC2)c1 | -4.98% | 0.82 µM [rising, partial curve, poor fit] | –
CN1C(=O)c2ccc(NC(=O)c3cccc(N4C(=O)CCC4=O)c3)cc2C1=O | 0.427% | 0.398 µM [falling, single point] | –
Cc1c(NC(=O)CC(C)C)c(=O)n(-c2ccccc2)n1C | 10.7% | 0.0731 µM [falling, full curve, poor fit] | –
O=C(NN1CCOCC1)c1ccccc1Br | 2.89% | 29.1 µM [rising, single point] | –
COC(=O)c1ccc(NC(=O)Nc2ccc(C)cc2)cc1 | 92.1% | 1.84 µM [rising, partial curve] | 2.31 µM [rising, partial curve]
COc1ccccc1-c1sc2cc3c(cc2c1C#Cc1ccccn1)OCO3 | 16.9% | 0.00731 µM [rising, full curve, poor fit] | –
O=C(NCCN1CCOCC1)/C(=C\c1ccc(Br)cc1)NC(=O)c1cccs1 | 19.4% | 1.84 µM [rising, partial curve] | –
O=C(COc1ccccc1F)Nc1cc(S(=O)(=O)Nc2cccc(Cl)c2)ccc1O | -10.4% | – | –

SMILES | cell number change | AC50 [1] | AC50 [2]
O=C(NC1CCCCC1)C(c1ccc2ncccc2c1)N(Cc1ccc(F)cc1)C(=O)c1cccs1 (stereo not given) | 144% | – | 29.1 µM [rising, single point]
CC(=O)N1CCN(S(=O)(=O)c2cccc(C(=O)Nc3ccccc3N3CCCC3)c2)CC1 | -22.8% | 0.82 µM [falling, single point] | –
CC(C)CNC(=O)NC1(C(F)(F)F)Oc2ccccc2O1 | – | 0.58 µM [falling, full curve] | –
CCOc1ccc(CC(=O)N/N=C/c2cccnc2)cc1OCC | 18.8% | – | –
C/C(CCC1CC(C)OC1=O)=N\NC(N)=O (stereo not given) | 15.6% | 3.26 µM [rising, partial curve] | 2.59 µM [rising, partial curve]
C/C(=N\NC(=O)c1nc(C)cc(C)n1)c1ccccc1 | 45.4% | 1.3 µM [rising, partial curve] | 1.64 µM [rising, full curve, poor fit]
O=[N+]([O-])c1ccc(-c2csc(Nc3ccccc3)[n+]2Cc2ccccc2)cc1 | – | 16.4 µM [falling, partial curve] | –
CC(=O)Nc1ccc(C(=O)NNC(=O)CCc2ccccc2)cc1 | 15.8% | 18.4 µM [rising, single point] | –
CN(Cc1ccccc1)C(=O)N[C@@H](Cc1ccccc1)C(=O)O | 1.61% | – | –
Cc1n[nH]c(C)c1S(=O)(=O)N1CCCC(C(=O)Nc2ccc3c(c2)OCCO3)C1 (stereo not given) | – | 3.66 µM [falling, partial curve] | 3.66 µM [falling, partial curve, poor fit]
CCCCOc1ccc(S(=O)(=O)n2c(C)nc3ccccc32)cc1 | 143% | 18.4 µM [rising, single point] | –
CCC(C)(C)NC(=O)C(c1cccc(OC)c1OC)N(CCC(C)C)C(=O)CCC(=O)Nc1cc(C)on1 (stereo not given) | -23.5% | – | –
Cc1cc(C)cc(-n2nnnc2SCC(=O)Nc2nc(-c3ccc(Cl)cc3)cs2)c1 | 45.2% | – | –
CCCn1cc(CN2CCC(n3nccc3NC(=O)c3ccc4c(c3)OCO4)CC2)c(C)n1 | -8.26% | 23.1 µM [rising, partial curve] | –
COc1ccccc1NC(=O)COc1ccc(-c2nn(C)c(=O)c3ccccc23)cc1 | -6.41% | 13 µM [rising, partial curve] | –
O=C(NNS(=O)(=O)c1ccc(Cl)cc1)c1sccc1-n1cccc1 | 15.8% | 0.58 µM [rising, single point] | –
CC(C)C(=O)N1CCN(CCN2C(=O)c3cccc4cccc(c34)C2=O)CC1 | -9.72% | – | –
COC(=O)c1cc(C)sc1NC(=O)C1CC(=O)NN1Cc1ccccc1 (stereo not given) | -28.1% | 1.46 µM [falling, full curve] | 2.31 µM [falling, full curve, poor fit]
CCCn1c(=O)c2c(nc3n2CCCN3Cc2ccccc2)n(C)c1=O | -30.6% | – | 0.0184 µM [falling, full curve, poor fit]
CC1(C)Cc2c(sc(NC(=O)C(=O)N3CCN(CCO)CC3)c2C(N)=O)CO1 | – | 29.1 µM [rising, single point] | –
O=C(CNc1cccc(Cl)c1)c1ccc(Br)cc1 | 24.7% | 20.6 µM [rising, partial curve] | –

SMILES | cell number change | AC50 [1] | AC50 [2]
Cc1cc(OCC(=O)NNC(=O)c2cccc(F)c2)ccc1Cl | -37.9% | 25.9 µM [falling, single point] | 29.1 µM [falling, single point]
Cc1cc(NS(=O)(=O)c2ccc(NC(=O)/C=C/c3ccccc3Cl)cc2)no1 | -1.51% | 1.46 µM [rising, full curve] | –
CCC12CN3CCN(CC(C3)/C1=N\NC(=O)c1ccc(F)cc1)C2 | 33.1% | 25.9 µM [rising, single point] | 29.1 µM [rising, single point]
O=C(c1ccc2c(c1)OCO2)N1CCN(S(=O)(=O)c2ccc(Cl)cc2)CC1 | 5.22% | – | –
CCN(CC)c1ccc(/C=C/C(=O)C2C(=O)C=C(C)OC2=O)cc1 (stereo not given) | -102% | – | –
O=C1CC(c2ccc(F)cc2)Sc2ccccc2N1 (stereo not given) | -39.6% | 16.4 µM [falling, single point] | 25.9 µM [falling, single point]
N#CCOC(=O)/C=C/c1ccc2c(c1)OCO2 | 71.4% | – | 14.6 µM [rising, partial curve]
CN(C)c1ccc(/C=N/N2C(=O)c3ccccc3C2=O)cc1 | 10% | 29.1 µM [rising, single point] | –
O=C(NNc1nc(Nc2ccccc2)nc(N2CCOCC2)n1)Nc1ccc(Cl)cc1 | -28.2% | – | –
O=C(/C=C/C=C/c1ccccc1)CC1(O)C(=O)N(CCc2ccccc2)c2ccccc21 (stereo not given) | 17% | – | 2.59 µM [rising, partial curve, poor fit]
COc1ccc(OCc2cc(C(=O)NCCN3CCCc4ccccc43)no2)c(Cl)c1 | 3.52% | 29.1 µM [falling, single point] | –
OCC1(Cc2cccc(C(F)(F)F)c2)CCN(Cc2cc(F)cc(F)c2)CC1 | -22.4% | 32.6 µM [falling, single point] | –
O=S(=O)(Nc1ccccc1O)c1ccc(-c2ccccc2)cc1 | -42.4% | 15.8 µM [falling, single point] | 35.5 µM [falling, single point]
COc1ccc(CCNC(=S)NC2CCN(Cc3ccccc3)CC2)cc1OC | -30.1% | 32.6 µM [falling, single point] | 29.1 µM [falling, single point]
COCCCn1c(C(=O)Nc2ccc3c(c2)OCO3)cc2c(=O)n3ccccc3nc21 | 18.3% | 4.11 µM [falling, single point] | –
COc1ccc(/C=C/C(=O)c2sc(-c3ccccc3)nc2C)cc1 | – | 1.03 µM [rising, full curve] | –
Cc1cc(C)c2c(N)c3ccccc3nc2n1 | 137% | 18.4 µM [rising, partial curve] | 9.2 µM [rising, partial curve]
CCOC(=O)C1CCN(c2ncnc3c2cnn3-c2ccc(Cl)cc2)CC1 | 34.2% | – | 32.6 µM [rising, single point]
COc1ccc(CC(=O)Nc2cc(=O)n(C)c(=O)n2C)cc1 | 32.2% | 3.26 µM [rising, full curve] | 4.61 µM [rising, full curve, poor fit]

Not a retest: entries from further up.
SMILES | cell number change | AC50 [1] | AC50 [2]
Cc1cc(NS(=O)(=O)c2ccc(NC(=O)/C=C/c3ccccc3Cl)cc2)no1 | -1.51% | 1.46 µM [rising, full curve] | –
CCC12CN3CCN(CC(C3)/C1=N\NC(=O)c1ccc(F)cc1)C2 | 33.1% | 25.9 µM [rising, single point] | 29.1 µM [rising, single point]
